PMC6697747
Results are given in words; binding and its absence hold for the method and conditions named. Binding seen in cells or lysates may run through a third protein. Some binding calls cover weakened binding; strength is not graded here.

Chains of the proteins cited; added tags and fusions are not shown. Lines headed by an entry give the natural chain unless they say otherwise; changes in a name come on top.
UniProt P05556: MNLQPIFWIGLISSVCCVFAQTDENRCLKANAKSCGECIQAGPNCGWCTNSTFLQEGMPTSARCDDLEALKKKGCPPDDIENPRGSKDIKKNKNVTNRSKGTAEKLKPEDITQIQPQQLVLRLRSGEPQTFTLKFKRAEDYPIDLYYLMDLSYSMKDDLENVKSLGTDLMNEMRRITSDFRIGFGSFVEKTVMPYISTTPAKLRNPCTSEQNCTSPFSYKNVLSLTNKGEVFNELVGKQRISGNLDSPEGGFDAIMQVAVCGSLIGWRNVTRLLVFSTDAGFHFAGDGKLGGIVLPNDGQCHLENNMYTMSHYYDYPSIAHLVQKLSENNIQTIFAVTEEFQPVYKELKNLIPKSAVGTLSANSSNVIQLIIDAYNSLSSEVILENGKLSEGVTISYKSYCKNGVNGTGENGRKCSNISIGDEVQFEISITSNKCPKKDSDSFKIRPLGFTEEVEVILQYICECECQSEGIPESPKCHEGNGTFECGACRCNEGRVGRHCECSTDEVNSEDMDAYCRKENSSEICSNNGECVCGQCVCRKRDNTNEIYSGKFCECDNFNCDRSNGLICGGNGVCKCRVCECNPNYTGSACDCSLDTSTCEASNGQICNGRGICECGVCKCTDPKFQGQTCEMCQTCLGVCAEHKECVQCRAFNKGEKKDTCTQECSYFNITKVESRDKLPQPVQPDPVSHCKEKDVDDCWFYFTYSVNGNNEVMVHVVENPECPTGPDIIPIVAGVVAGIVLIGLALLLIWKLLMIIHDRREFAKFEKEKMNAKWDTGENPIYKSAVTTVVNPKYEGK

Molecular target: Neuropilin-1 wild type (NRP1-WT) (human) (UniProt O14786)
Test: co-IP; HT29 cells with stable expression of NRP1-WT, NRP1-ΔE4 or NRP1-ΔE5 lysed in RIPA buffer; 500 µg lysate protein immunoprecipitated with 2 µg NRP1 antibody (IgG as control) overnight, protein G sepharose 3 h at 4 °C; western blot, densitometry

- binding: binds
Substance: β1-integrin (from UniProt P05556 21-798) (receptor)
